Measurements published in article PMC7819943, “Rice protein-binding microarrays: a tool to detect cis-acting elements near promoter regions in rice”.
The list shows a part of the results.

By UniProt entry, the sequences of proteins in these tests, tags left out.
UniProt Q0JBA9, entry or part of it: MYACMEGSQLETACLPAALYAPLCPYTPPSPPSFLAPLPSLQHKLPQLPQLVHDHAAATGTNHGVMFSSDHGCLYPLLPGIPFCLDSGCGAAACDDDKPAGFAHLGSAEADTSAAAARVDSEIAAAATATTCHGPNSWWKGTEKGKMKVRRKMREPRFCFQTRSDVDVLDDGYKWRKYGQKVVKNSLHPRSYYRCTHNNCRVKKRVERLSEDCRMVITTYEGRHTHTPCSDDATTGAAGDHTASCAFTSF

molecular target: OsWRKY34 (Oryza sativa, UniProt Q0JBA9 1-250); assay: protein-binding microarray (RPBM); PBS, 2% BSA, 51.3 ng/ul salmon testes DNA, 50 uM zinc acetate, 200 nM TF, 25 C, 1 h; high values mean tight binding; details: protein: recombinant; tags: N-terminal polyhistidine and DsRed monomer fusion (pET32a); label: CyDye5-dUTP incorporated in the synthesized complementary strand; 3' TTTTT single-stranded linker to array surface; dsDNA, one strand shown
How it was run: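 Transcription factors were made in E. coli BL21-CodonPlus as N-terminal fusions to a polyhistidine tag and DsRed, then purified on Ni–NTA. After primer extension with Cy5-dUTP and blocking with 2% BSA, a custom Agilent array was exposed for 1 h at 25 °C to 200 nM protein in PBS, 2% BSA, salmon testes DNA and 50 µM zinc acetate. Washed arrays were scanned on an Axon 4000B, and the binding signal is per-feature fluorescence intensity in arbitrary units.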

Row | Sequence | binding signal
1 | TCTGGTTAGGCGTCAAATGATGGTGTTCGTGTCTTCTATTCGGAGTCACCTAGTGCAG | 10400 fluorescence intensity (a.u.)
2 | AGGGCTATATTCTCAGATTCATCATGATTCTTTCGTTTATCGGAGTCACCTAGTGCAG | 9190 fluorescence intensity (a.u.)
3 | ACGCCCGCCAGCAGCAACCACTTCCCACTCACCACGCATGCGGAGTCACCTAGTGCAG | 8880 fluorescence intensity (a.u.)
4 | ACTGAGCCTATATTGCCCTTATTTCATACTTATATGCTAGCGGAGTCACCTAGTGCAG | 9340 fluorescence intensity (a.u.)
5 | AAATTCTCATCCAATCGTCTCTATTCTCTCTCATTTTATCCGGAGTCACCTAGTGCAG | 11400 fluorescence intensity (a.u.)
6 | TTCATATTTTTTTACCCTTTTTGTCCACCTCTGTTTTAGACGGAGTCACCTAGTGCAG | 8240 fluorescence intensity (a.u.)
7 | CCAGAACCTGTTTTCCAGTTCATCCCGTTGCCGGAGGGGTCGGAGTCACCTAGTGCAG | 9440 fluorescence intensity (a.u.)
8 | TTAGAATCCTACGTTTTTTCATTCCTACGATTCAAAGGGGCGGAGTCACCTAGTGCAG | 10500 fluorescence intensity (a.u.)
9 | TTGTGGTGATTGAGAGGGTTTGAAAGGGGTTGATGTGTGGCGGAGTCACCTAGTGCAG | 8200 fluorescence intensity (a.u.)
10 | GCTGCCATCACTTCGTCCTCTCCCTGTTCCTGGACGTCCTCGGAGTCACCTAGTGCAG | 8410 fluorescence intensity (a.u.)
11 | CACAGTCAAATCATCACAATGCTCCTGTCTGATTCTGTTACGGAGTCACCTAGTGCAG | 9690 fluorescence intensity (a.u.)
12 | CACCACCCAGATCTGTCTCGTCTCTGTTCTTGCCTTCGCTCGGAGTCACCTAGTGCAG | 11900 fluorescence intensity (a.u.)
13 | TTGGTTTTCTTAAATTTATTTTTTCCTTTTTTTTCTTTTACGGAGTCACCTAGTGCAG | 10800 fluorescence intensity (a.u.)
14 | CCACTGCCACCGCCCCTCGCCGCTGACGACCGCCGCCGCCCGGAGTCACCTAGTGCAG | 9580 fluorescence intensity (a.u.)
15 | CCAACCTGTTAGCTGTCTCCTCACCTCTCCATGATCAACTCGGAGTCACCTAGTGCAG | 9040 fluorescence intensity (a.u.)
16 | ATTTGCCGCCGCCACCGCACCGCCCAACTCTGGTTCTTGACGGAGTCACCTAGTGCAG | 8440 fluorescence intensity (a.u.)
17 | GACATTTCGGCTGAGTTCTTTGGCTACCTTTCTCCTTTTCCGGAGTCACCTAGTGCAG | 8500 fluorescence intensity (a.u.)
18 | CGATGTGTTTGTATTATATTTATGCAAGTCATATTTAAACCGGAGTCACCTAGTGCAG | 8540 fluorescence intensity (a.u.)
19 | TTTCACTTTTCAGCCATGAGGCTGTCGTCCCTGCTGTTCTCGGAGTCACCTAGTGCAG | 8530 fluorescence intensity (a.u.)
20 | AGTGATGAACGCACAAACGGTATTTGACTTTTTTGTCCATCGGAGTCACCTAGTGCAG | 9170 fluorescence intensity (a.u.)
21 | GAATTGATCTCATGCATGCCAACCCTTCTAGCAATCTATCCGGAGTCACCTAGTGCAG | 9310 fluorescence intensity (a.u.)

Row | Sequence | binding signal
22 | AACTTTTCCGTGACATCGTTCGAATTTCAACCAAACTTTCCGGAGTCACCTAGTGCAG | 9590 fluorescence intensity (a.u.)
23 | TCCGTTTGTTTTGTCTTCATATTGTTTTTCTTTTACAGATCGGAGTCACCTAGTGCAG | 14500 fluorescence intensity (a.u.)
24 | TTCCCTCCATATTTTAATGTATGACGCCGTTGACTTTTTACGGAGTCACCTAGTGCAG | 17700 fluorescence intensity (a.u.)
25 | ACATCTCGCGCTGCTGCTCTCCTCTTCCGTTCCAACGCCCCGGAGTCACCTAGTGCAG | 9750 fluorescence intensity (a.u.)
26 | CTCCGAACCCCACCGTTTTATGCTCTAGTTGTGTTTTGGGCGGAGTCACCTAGTGCAG | 10900 fluorescence intensity (a.u.)
27 | CTAGGGTTAGGGGTTTGGGTGGGGAAATTTTCACGAGGGACGGAGTCACCTAGTGCAG | 14600 fluorescence intensity (a.u.)
28 | TCGTCGTTGTGTTCAACTATTGCACTACCTCCCTCCTAGTCGGAGTCACCTAGTGCAG | 8580 fluorescence intensity (a.u.)
29 | TTCATCTCACGTACTGTTCTTTTGCCTCTCGCTAGCTCGTCGGAGTCACCTAGTGCAG | 9220 fluorescence intensity (a.u.)
30 | TGTTTTTTTCCCTATTTTTGTTTCTGCATCTTGACATTTTCGGAGTCACCTAGTGCAG | 16000 fluorescence intensity (a.u.)
31 | CCGCGACACAACCCTGCCACCGTCGCCGCTTTCTTTGCCGCGGAGTCACCTAGTGCAG | 11600 fluorescence intensity (a.u.)
32 | TATGTCATATATTAATTTATCTTGTTTATTTTTTTCAATTCGGAGTCACCTAGTGCAG | 8660 fluorescence intensity (a.u.)
33 | ATCTGGTTTTGTGATTTGAGGATGTTTTTTATTTCGCTGACGGAGTCACCTAGTGCAG | 8750 fluorescence intensity (a.u.)
34 | GGCGCAGATCCAGTTAACCCTATCACATTTCACCATGTACCGGAGTCACCTAGTGCAG | 8230 fluorescence intensity (a.u.)
35 | AATAAACGCCGATCCAACCGCACACTCGCGCGGTGCCGCGCGGAGTCACCTAGTGCAG | 9020 fluorescence intensity (a.u.)
36 | ACAAATTTAGGGACCGCTCATGCACTTCACTCTTGTTCTTCGGAGTCACCTAGTGCAG | 8290 fluorescence intensity (a.u.)
37 | GGTTGGCCGCTGTTGTCTCTCAACCGAATCGTTGATCGCGCGGAGTCACCTAGTGCAG | 8810 fluorescence intensity (a.u.)
38 | GAGGACGAAGTGGAGGCGGAGGGCAGGTGGGGAGGAGAGCCGGAGTCACCTAGTGCAG | 8660 fluorescence intensity (a.u.)
39 | TCGTTTCCCACGTGCACATTTTTCAAACCGTTAAACGGTGCGGAGTCACCTAGTGCAG | 9930 fluorescence intensity (a.u.)
40 | AGTTCAAGACCTTGTCATCACGTTGCTCATTCCGGCCATGCGGAGTCACCTAGTGCAG | 8150 fluorescence intensity (a.u.)
41 | CCATCACCTGCCGAGCTGCTGAGCTACCCATCGTTCGCGACGGAGTCACCTAGTGCAG | 9250 fluorescence intensity (a.u.)
42 | TGACTGTTTATTTTATTTGAAATTTCTTTATGATTAGTATCGGAGTCACCTAGTGCAG | 12100 fluorescence intensity (a.u.)

Reformatted tab-delimited: entries from further up
Row	Sequence	binding signal
15	CCAACCTGTTAGCTGTCTCCTCACCTCTCCATGATCAACTCGGAGTCACCTAGTGCAG	9040 fluorescence intensity (a.u.)
16	ATTTGCCGCCGCCACCGCACCGCCCAACTCTGGTTCTTGACGGAGTCACCTAGTGCAG	8440 fluorescence intensity (a.u.)
17	GACATTTCGGCTGAGTTCTTTGGCTACCTTTCTCCTTTTCCGGAGTCACCTAGTGCAG	8500 fluorescence intensity (a.u.)
18	CGATGTGTTTGTATTATATTTATGCAAGTCATATTTAAACCGGAGTCACCTAGTGCAG	8540 fluorescence intensity (a.u.)
19	TTTCACTTTTCAGCCATGAGGCTGTCGTCCCTGCTGTTCTCGGAGTCACCTAGTGCAG	8530 fluorescence intensity (a.u.)
20	AGTGATGAACGCACAAACGGTATTTGACTTTTTTGTCCATCGGAGTCACCTAGTGCAG	9170 fluorescence intensity (a.u.)
21	GAATTGATCTCATGCATGCCAACCCTTCTAGCAATCTATCCGGAGTCACCTAGTGCAG	9310 fluorescence intensity (a.u.)
22	AACTTTTCCGTGACATCGTTCGAATTTCAACCAAACTTTCCGGAGTCACCTAGTGCAG	9590 fluorescence intensity (a.u.)
23	TCCGTTTGTTTTGTCTTCATATTGTTTTTCTTTTACAGATCGGAGTCACCTAGTGCAG	14500 fluorescence intensity (a.u.)
24	TTCCCTCCATATTTTAATGTATGACGCCGTTGACTTTTTACGGAGTCACCTAGTGCAG	17700 fluorescence intensity (a.u.)
25	ACATCTCGCGCTGCTGCTCTCCTCTTCCGTTCCAACGCCCCGGAGTCACCTAGTGCAG	9750 fluorescence intensity (a.u.)
26	CTCCGAACCCCACCGTTTTATGCTCTAGTTGTGTTTTGGGCGGAGTCACCTAGTGCAG	10900 fluorescence intensity (a.u.)
